Measured values: PMC10649565
These are yes or no findings as the source states them, for the method shown. In cells and extracts the contact can be indirect. Binding calls can cover weak binding; strength is not graded here.

Amino acid sequences for entries named in this document (tags omitted). A change or cut given only in a name is not applied to a line headed by its entry.
UniProt O14893: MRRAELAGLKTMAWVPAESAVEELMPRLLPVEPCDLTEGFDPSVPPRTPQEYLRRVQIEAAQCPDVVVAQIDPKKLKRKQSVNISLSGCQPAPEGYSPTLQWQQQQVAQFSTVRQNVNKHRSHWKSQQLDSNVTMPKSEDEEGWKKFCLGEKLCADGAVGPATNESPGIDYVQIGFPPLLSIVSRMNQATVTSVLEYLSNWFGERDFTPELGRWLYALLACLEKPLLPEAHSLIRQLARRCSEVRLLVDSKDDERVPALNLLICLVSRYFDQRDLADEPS
UniProt P23443: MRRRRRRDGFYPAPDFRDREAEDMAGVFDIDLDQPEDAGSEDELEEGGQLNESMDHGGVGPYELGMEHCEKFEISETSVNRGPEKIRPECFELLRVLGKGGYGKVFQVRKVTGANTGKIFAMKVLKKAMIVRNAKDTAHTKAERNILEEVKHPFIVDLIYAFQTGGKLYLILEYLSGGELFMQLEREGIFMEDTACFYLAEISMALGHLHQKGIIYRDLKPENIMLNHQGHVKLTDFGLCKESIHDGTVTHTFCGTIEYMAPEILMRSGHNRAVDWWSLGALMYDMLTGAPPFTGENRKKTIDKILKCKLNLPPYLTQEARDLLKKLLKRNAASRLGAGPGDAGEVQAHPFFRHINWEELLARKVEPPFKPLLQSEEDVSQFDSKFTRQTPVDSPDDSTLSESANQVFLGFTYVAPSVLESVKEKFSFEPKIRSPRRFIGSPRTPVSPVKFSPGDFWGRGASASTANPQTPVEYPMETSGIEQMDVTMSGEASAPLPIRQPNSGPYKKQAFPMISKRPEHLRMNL

Tests used:
GFP-Gemin2 wt (human) = GFP-Gemin2 wt (human) (UniProt O14893); test: co-IP; GFP immunopurification: S100 extracts of doxycycline-induced (0.1 µg/mL, 24 h) Flp-In T-REx 293 cells on GFP-Trap beads, at least 2 h at 4 °C, washed 3 times with DPBS; Western blot
GST-Gemin2 S166A (human) = GST-Gemin2 S166A (human) (UniProt O14893); test: pull-down; recombinant GST proteins on glutathione Sepharose 4B incubated 2 h at 4 °C with HEK293T S100 (cytoplasmic) extract, washed 3 times with lysis buffer; Western blot; only the target purified
GST-Gemin2 S166D (human) = GST-Gemin2 S166D (human) (UniProt O14893); test: as above
GST-Gemin2 S81A (human) = GST-Gemin2 S81A (human) (UniProt O14893); test: as above
GST-Gemin2 S81D (human) = GST-Gemin2 S81D (human) (UniProt O14893); test: as above
[1] = target: GST-Gemin2 wild type (wt) (human) (UniProt O14893); test: as above
[2] = target: Gemin2 (endogenous) (human (endogenous in HEK293 cells)) (UniProt O14893); test: co-IP; endogenous immunopurification: 1 µg antibody on protein G/protein A beads, 1 mg HEK293 S100 extract, 2 h at 4 °C, washed with 50 mM Tris pH 7.5, 150 mM NaCl, 1 mM EDTA, 1 mM EGTA, 0.01% Igepal; Western blot

binding (GFP-Gemin2 wt (human)): binds | binding (GST-Gemin2 S166A (human)): binds | binding (GST-Gemin2 S166D (human)): binds | binding (GST-Gemin2 S81A (human)): binds | binding (GST-Gemin2 S81D (human)): binds | binding [1]: binds | binding [2]: binds
Substance: ribosomal protein S6 kinase beta-1 (p70S6K) (from UniProt P23443) (enzyme)
